In patent US20080149878A1, “Fluorosurfactants” (priority 2005, published 2008):

Test system: activated sludge
Experiment: Fluoride determination by ion chromatography during the Zahn-Wellens test

## O=S(=O)(O)CCCCCCCCCCOC(F)(F)F [Example 5, Sodium 10-trifluoromethoxydecane-1-sulfonate]
Duration of the measurement 0 d
  mg/l of free fluoride: 1.1 mg/L
Duration of the measurement 0.125 d
  mg/l of free fluoride: 1.6 mg/L
Duration of the measurement 1 d
  mg/l of free fluoride: 2.0 mg/L
Duration of the measurement 2 d
  mg/l of free fluoride: 2.6 mg/L
Duration of the measurement 5 d
  mg/l of free fluoride: 1.1 mg/L
Duration of the measurement 8 d
  mg/l of free fluoride: 9.6 mg/L
Duration of the measurement 9 d
  mg/l of free fluoride: 11.5 mg/L
Duration of the measurement 12 d
  mg/l of free fluoride: 20.3 mg/L
Duration of the measurement 15 d
  mg/l of free fluoride: 24.5 mg/L
Duration of the measurement 19 d
  mg/l of free fluoride: 28.1 mg/L
Duration of the measurement 22 d
  mg/l of free fluoride: 30.9 mg/L
Duration of the measurement 26 d
  mg/l of free fluoride: 35.7 mg/L
Duration of the measurement 28 d
  mg/l of free fluoride: 43.1 mg/L
